Experimental data reported in PubChem BioAssay AID248 (DTP/NCI, 2004).
The list does not hold the whole screen: it gathers tests that were run many times, whatever their T/C, doses with no T/C, and many T/C values between a quarter and a half above the control. Further doses and runs are listed elsewhere. T/C: endpoint of the treated group in % of that of the vehicle group. Some doses have a count of surviving animals in place of a T/C: the source holds a T/C of zero for them, seemingly a mark for toxic or unscored doses. Some doses without a T/C left all or most animals alive at the check, yet need not have been tolerated: survival well below the control is almost never listed, so the zero probably covers shortened survival too. Counts of survivors are from the toxicity check (mostly the fifth day) where no day follows; animals may have died later. Schedule codes are those of the source, taken here to give the interval after Q, in days (D) or hours (H), and the number of doses after X. Some doses were run more than once; the values are given in rising order. Some schedule codes hold Z or #, which are not explained here. Where survival is the endpoint, this PubChem deposit counts one and a half times the control or more as active, and values a quarter to a half above the control carry no call in these data; other NCI protocols may use other cut-offs. Brackets with × give the number of equal values in this list.

Test system: L1210 leukemia ip in BDF1 mice, survival T/C
Experiment: NCI In Vivo Anticancer Drug Screen. Data for tumor model L1210 Leukemia (intraperitoneal) in B6D2F1 (BDF1) mice
Conditions: T/C endpoint: mean survival time, higher T/C = longer survival
[1] = dose: 100.0 mg/kg/injection, schedule: Q04DX003 (ip), vehicle: saline with Tween-80
[2] = dose: 200.0 mg/kg/injection, schedule: Q04DX003 (ip), vehicle: saline with Tween-80
[3] = dose: 400.0 mg/kg/injection, schedule: Q04DX003 (ip), vehicle: saline with Tween-80
[4] = dose: 200.0 mg/kg/injection, schedule: Q04DX003 (ip), vehicle: saline
[5] = dose: 400.0 mg/kg/injection, schedule: Q04DX003 (ip), vehicle: saline
[6] = dose: 200.0 mg/kg/injection, schedule: Q01DX009 (ip), vehicle: saline with Tween-80
[7] = dose: 200.0 mg/kg/injection, schedule: Q01DX009 (ip), vehicle: Klucel (hydroxypropylcellulose) (HPC)
[8] = dose: 400.0 mg/kg/injection, schedule: Q04DX003 (ip), vehicle: Klucel (hydroxypropylcellulose) (HPC)
[9] = dose: 400.0 mg/kg/injection, schedule: Q01DX009 (ip), vehicle: Klucel (hydroxypropylcellulose) (HPC)
[10] = dose: 100.0 mg/kg/injection, schedule: Q01DX001 (ip), vehicle: saline

CCOc1ccc(Br)cc1/C=C(\C#N)c1ccc([N+](=O)[O-])cc1
survivor count (dose: 12.5 mg/kg/injection, schedule: Q01DX009 (ip), vehicle: saline with Tween-80): 6 of 6
survivor count (dose: 50.0 mg/kg/injection, schedule: Q01DX009 (ip), vehicle: saline with Tween-80): 5 of 6
survivor count [1]: 6 of 6
survivor count [2]: 6 of 6
survivor count [3]: 6 of 6

CCCCCCCCOC(=O)C1=NC=NC1=[N+]=[N-]
survivor count (dose: 50.0 mg/kg/injection, schedule: Q01DX001 (ip), vehicle: other): 0 of 4
survivor count (dose: 80.0 mg/kg/injection, schedule: Q01DX001 (ip), vehicle: other): 0 of 6
survivor count (dose: 100.0 mg/kg/injection, schedule: Q01DX001 (ip), vehicle: other): 0 of 4
survivor count (dose: 200.0 mg/kg/injection, schedule: Q01DX001 (ip), vehicle: other): 0 of 4
survivor count (dose: 400.0 mg/kg/injection, schedule: Q01DX001 (ip), vehicle: other): 0 of 4

N#C/C(=C\c1ccco1)c1ccc([N+](=O)[O-])cc1
survivor count [1]: 1 of 6
survivor count [2]: 0 of 6
survivor count [3]: 0 of 6

CN(C)c1ccc(N=Cc2cc[n+](C)cc2)cc1
survivor count (dose: 100.0 mg/kg/injection, schedule: Q01DX009 (ip), vehicle: saline): 3 of 6
survivor count [4]: 0 of 6
survivor count [5]: 0 of 6

CCOc1ccc(NC(=O)CCCCCCCCC(=O)Nc2ccc(OCC)cc2)cc1
T/C (dose: 100.0 mg/kg/injection, schedule: Q01DX009 (ip), vehicle: saline with Tween-80): 86, 87 (2×), 94 % of control
T/C [6]: 91, 97, 98 % of control
survivor count [6]: 3 of 3

O=C(N/N=C/C1CC2C=CC1C2)c1ccncc1 (configuration not stated)
survivor count [6]: 2 of 6
survivor count (dose: 400.0 mg/kg/injection, schedule: Q01DX009 (ip), vehicle: saline with Tween-80): 0 of 6

CC1(C)N=C(N)N=C(N)N1c1ccc(OCCCOc2ccccc2)c(Cl)c1
survivor count [7]: 2 of 6
survivor count [8]: 1 of 6

O=S(=O)(O)c1ccc(CCCCCCCCCl)cc1
survivor count (dose: 400.0 mg/kg/injection, schedule: Q04DX002 (ip), vehicle: saline): 0 of 3

c1cc2cc3c(cc2cc1CC1=NCCc2cc4c(cc21)OCO4)OCO3
survivor count (dose: 100.0 mg/kg/injection, schedule: Q01DX009 (ip), vehicle: other): 5 of 6

O=C(O)c1cc(Cl)ccn1
survivor count [7]: 6 of 6
survivor count [9]: 0 of 6

C=CCc1cc(CNC(C)C)c(O)c(OC)c1
survivor count (dose: 200.0 mg/kg/injection, schedule: Q04DX003 (ip), vehicle: Klucel (hydroxypropylcellulose) (HPC)): 0 of 6
survivor count [8]: 1 of 6

OC(c1ccc(OCc2ccccc2)cc1)c1nccc2ccccc12 (configuration not stated)
survivor count (dose: 200.0 mg/kg/injection, schedule: Q01DX001 (ip), vehicle: acetone): 6 of 6
survivor count (dose: 400.0 mg/kg/injection, schedule: Q01DX001 (ip), vehicle: acetone): 6 of 6

C[Si](C)(C)C(c1ccccc1)(c1ccccc1)c1ccccc1
survivor count [1]: 6 of 6
survivor count (dose: 160.0 mg/kg/injection, schedule: Q04DX002 (ip), vehicle: saline with Tween-80): 3 of 3

CC(=O)NCc1cc2c3c(c1)CCCN3CCC2
survivor count [3]: 4 of 6

CCC1=CC(=O)C(C)=C(C)C1=O
survivor count (dose: 200.0 mg/kg/injection, schedule: Q04DX003 (ip), vehicle: other): 0 of 6
survivor count (dose: 400.0 mg/kg/injection, schedule: Q04DX003 (ip), vehicle: other): 0 of 6

Oc1cccnc1CN1CCCCC1
survivor count [4]: 0 of 6

Cc1ccccc1CC1c2[nH]c3ccccc3c2CCN1C (configuration not stated)
survivor count (dose: 300.0 mg/kg/injection, schedule: Q01DX001 (ip), vehicle: other): 1 of 6

CC(C)(C)C1=CC(=O)C(C#N)=C(C#N)C1=O
survivor count [4]: 2 of 6
survivor count [5]: 0 of 6

CN(CCN(C)c1ccc(N)cc1)c1ccc(N)cc1
survivor count [10]: 0 of 6
survivor count (dose: 200.0 mg/kg/injection, schedule: Q01DX001 (ip), vehicle: saline): 0 of 6
survivor count (dose: 400.0 mg/kg/injection, schedule: Q01DX001 (ip), vehicle: saline): 0 of 6

C/C=C/Cn1cnc2c1c(=O)n(C)c(=O)n2C
survivor count [3]: 2 of 3

CCOC(=O)C(CC(=O)O)=C1c2ccccc2-c2ccccc21
survivor count (dose: 400.0 mg/kg/injection, schedule: Q01DX001 (ip), vehicle: Klucel (hydroxypropylcellulose) (HPC)): 1 of 6
survivor count [9]: 0 of 3 and 1 of 6
survivor count (dose: 400.0 mg/kg/injection, schedule: Q04DX002 (ip), vehicle: Klucel (hydroxypropylcellulose) (HPC)): 0 of 3 and 0 of 6

NNC(=O)C12CCCCC1CCC2 (configuration not stated)
survivor count (dose: 200.0 mg/kg/injection, schedule: Q01DX009 (ip), vehicle: acetone): 6 of 6

On1cnc(=S)c2[nH]cnc21
T/C (dose: 375.0 mg/kg/injection, schedule: Q01DX Z (ip), vehicle: carboxymethylcellulose (CMC)): 133 % of control
T/C (dose: 500.0 mg/kg/injection, schedule: Q01DX Z (ip), vehicle: carboxymethylcellulose (CMC)): 125 % of control

O=C(Cl)COc1cc(Cl)c(Cl)cc1Cl
survivor count (dose: 400.0 mg/kg/injection, schedule: Q04DX002 (ip), vehicle: gum acacia): 2 of 3

CN=C(NC)c1ccc(NC(=O)c2ccc(C(=O)Nc3ccc(C(=NC)NC)c(C)c3)cc2)cc1C
survivor count (dose: 55.0 mg/kg/injection, schedule: Q01DX Z (ip), vehicle: carboxymethylcellulose (CMC)): 2 of 6
survivor count (dose: 60.0 mg/kg/injection, schedule: Q01DX Z (ip), vehicle: carboxymethylcellulose (CMC)): 2 of 6
survivor count (dose: 120.0 mg/kg/injection, schedule: Q01DX Z (ip), vehicle: carboxymethylcellulose (CMC)): 0 of 6

CCCCCCCCCCCCCCCCCC(=O)N/N=C/C=C/c1ccccc1
survivor count (dose: 100.0 mg/kg/injection, schedule: Q01DX009 (ip), vehicle: Klucel (hydroxypropylcellulose) (HPC)): 5 of 6

CC1OC(OC2CCC3(C=O)C4CCC5(C)C(C6=CC(=O)OC6)CCC5(O)C4CCC3(O)C2)C(O)C(O)C1O (configuration not stated)
survivor count (dose: 12.0 mg/kg/injection, schedule: Q01DX001 (ip), vehicle: carboxymethylcellulose (CMC)): 3 of 6
survivor count (dose: 25.0 mg/kg/injection, schedule: Q01DX001 (ip), vehicle: carboxymethylcellulose (CMC)): 0 of 6
survivor count (dose: 50.0 mg/kg/injection, schedule: Q01DX001 (ip), vehicle: carboxymethylcellulose (CMC)): 0 of 6
survivor count (dose: 100.0 mg/kg/injection, schedule: Q01DX001 (ip), vehicle: carboxymethylcellulose (CMC)): 1 of 6
survivor count (dose: 200.0 mg/kg/injection, schedule: Q01DX001 (ip), vehicle: carboxymethylcellulose (CMC)): 0 of 6
survivor count (dose: 400.0 mg/kg/injection, schedule: Q01DX001 (ip), vehicle: carboxymethylcellulose (CMC)): 0 of 6

C1CCC(C2CCC(N3CCCCC3)CC2)CC1 (configuration not stated)
survivor count [10]: 0 of 4

C=CCCC(=O)OC(C)(C)C
survivor count (dose: 400.0 mg/kg/injection, schedule: Q01DX009 (ip), vehicle: water): 0 of 6

C(C[P+](c1ccccc1)(c1ccccc1)c1ccccc1)=C(c1ccccc1)c1ccccc1
survivor count (dose: 20.0 mg/kg/injection, schedule: Q01DX001 (ip), vehicle: saline): 3 of 6
survivor count (dose: 75.0 mg/kg/injection, schedule: Q01DX001 (ip), vehicle: saline): 0 of 6
survivor count (dose: 150.0 mg/kg/injection, schedule: Q01DX001 (ip), vehicle: saline): 0 of 6
survivor count (dose: 300.0 mg/kg/injection, schedule: Q01DX001 (ip), vehicle: saline): 1 of 6
